From patent publication US20230253066A1, “DESIGNED PROTEINS FOR LIGAND BINDING” (The Regents of the University of California, priority 2020, published 2023)
For at least one compound, name, drawing or mass did not settle the structure.

Target: ABLE
Test: Fluorescence anisotropy ligand competition on ABLE (displacement of apixaban-peg-FITC)
Details: ABLE 20 μM, apixaban-peg-FITC 25 nM; 50 mM NaPi, 100 mM NaCl, pH 7.4; fit of initial points at DMSO <2%; KD of weaker competitors viewed as lower limit; read-out: KD of competing ligand for ABLE, competitive binding model
Protocol: We performed fluorescence anisotropy experiments (54, 55) of ABLE and LABLE using a FITC fluorophore conjugated to apixaban as the fluorescent probe (FIGS. 512A-512D and Scheme 1). We serially diluted a concentrated protein solution containing 25 nM Apx-peg-FITC, holding constant the concentration of Apx-peg-FITC. Parallel and perpendicularly polarized emission at 528 nm (10 nm slit width, 510 nm long pass filter) were integrated for 10 seconds after 485 nm (5 nm slit width) excitation of the FITC fluorophore of Apx-peg-FITC. The data were fit to a single-site binding model (Equation 2, with N=1) (FIG. S12B). We performed ligand competition experiments (54, 55) by adding aliquots of a concentrated ligand stock in DMSO into an approximately 50% bound complex of protein and Apx-peg-FITC (25 nM). The decrease in anisotropy as a function of competing ligand was fit to a competitive binding model (54, 55) (FIG. 4D and FIG. S12C and FIG. S12D). Because effects of DMSO on the anisotropy of bound ABLE/Apx-peg-FITC complex become more pronounced at high concentrations of DMSO (>4%), we fit only the initial data points at low DMSO concentration (% DMSO <2%, FIG. 4D). […] Fluorescence polarization competition with apixaban as competitor gives a KD of 7 (±1) μM for the apixaban/ABLE complex (FIG. 4D), which agrees with that of the more precise spectral titration [KD=5 (±1) μM]. […]

For COc1ccc(-n2nc(C(=O)O)c3c2C(=O)N(c2ccc(N4CCCCC4=O)cc2)CC3)cc1 [apixbanCOO^−], the Kd was ≥ 50 µM.
